PubChem BioAssay AID1259254 | NCATS, 2017

Test: 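Finding genes that stop cells copying their DNA twice in one cycle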 (primary screen)
System: human HCT116 colorectal cancer cells
Reagent: single siRNA against human genes
Time to read-out: 3 days
Measured: 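Imaged Hoechst DNA stain sorts each cell into a cycle phase by DNA amount; per plate, G2 fraction set to 0% for non-targeting and 100% for GMNN siRNA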
Scale: G2 robust z-score: higher = more G2 cells, more excess DNA replication
Active means: 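An siRNA counts as active if its G2 robust z-score lies at least 5 MADs above the screen median; here such calls match roughly 38% of GMNN control or more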
Here is a random part of about 59,000 deposited reagents. In the full data, about 1,550 (2.6%) are marked active. 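G2 share is only a proxy for re-replication; each gene was hit by three separate siRNAs, and active genes were retested.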 Unmarked entries are inactive. The numbers tell different reagents against one gene apart. Further read-outs or replicates are left out here. The record does not give: the amount of reagent.

G2 robust z-score, by target gene and reagent
CHERP: #1 -0.986; #2 0.203; #3 0.0741
SGF29: #1 -0.305; #2 0.464; #3 -0.0348
TOM1L1: #1 -0.158; #2 0.514; #3 -0.157
SAMD5: #1 -0.266; #2 -0.487; #3 -0.84
EIF2AK1: #1 0.56; #2 -0.122; #3 0.0289
ATP5F1D: #1 0.11; #2 -1.04; #3 -0.738
PDE6D: #1 0.497; #2 -0.945; #3 -0.228
ALB: #1 0.0687; #2 -0.463; #3 3.93
MRGPRX4: #1 -1.12; #2 0.755; #3 -1.16
TXN: #1 5.47 (active); #2 1.84; #3 -1.01
ZNF547: #1 -0.345; #2 -0.644; #3 0.0761
THAP11: #1 2.31; #2 -0.506; #3 -0.185
TNFRSF14: #1 -0.941; #2 0.261; #3 -0.285
NPL: #1 -1.05; #2 4.13; #3 0.155
OSBPL10: #1 0.522; #2 -0.332; #3 0.0326
COL21A1: #1 -1.29; #2 0.223; #3 -0.323
CRYBB1: #1 1.04; #2 2.18; #3 -0.387
CSF2RA: #1 -0.794; #2 -0.0995; #3 -1.01
TLE3: #1 -0.946; #2 -0.245; #3 1.27
ZNF670: #1 -0.299; #2 -0.586; #3 -0.297
ZNF599: #1 -0.413; #2 0.846; #3 1.53
NUP54: #1 -0.0956; #2 2.46; #3 -1.05
EPB41L4B: #1 -0.827; #2 -0.218; #3 0.707

Records above with an active call:
G2 robust z-score, by target gene and reagent
TXN: #1 5.47 (active)
